In patent US12099068B2, “Biomarkers for graft-versus-host disease” (Incyte Corporation, priority 2018, dated 2024):
Where “and” joins values, the source holds several entries; their conditions need not be identical. Equal entries are not always repeated.

Tests used:
plasma proteins [1] = experiment: OLINK proximity extension assay of baseline plasma, CR compared to PD/Death, updated classification, Example 5 (Table 11); type: in vivo, human; conditions: itacitinib 200 or 300 mg QD plus corticosteroids, response at day 28
[2] = test system: MCP-3 (CCL7), Reg3A, TNFRSF6B, SCF, CXCL10, IL-8, ST2, CALCA, TNF-R1, IL-6, CCL19, IL-2Ra, and PON3; conditions: targeted OLINK proximity extension assay; for Protein expression, mean, CR (N = 10) / Protein expression, median, CR (N = 10): Complete Responder group; for Protein expression, mean, PD/Death (N = 7) / Protein expression, median, PD/Death (N = 7): Progressive Disease/Death group
plasma proteins [3] = experiment: Proteins of Table 11 stably expressed in complete responders between days 1 and 28, Example 5 (Table 12); type: in vivo, human; conditions: day 1 vs day 28
Description: Due to the limited sample size, steroid-naive (N=10) and steroid-refractory (N=18) patients were combined for further analysis. Broad proteomic analysis of over 1000 proteins was conducted by OLINK Proteomics (Watertown, MA) using a proximity extension assay as described by the manufacturer. Data are presented as normalized protein expression (NPX) in log 2 scale. Statistical differences were evaluated using unpaired and paired t tests, one-way […] (ANOVA), and Pearson Correlation. Significance was conferred when P<0.05.

## SCF
Plasma proteins [1]
  Fold Change, Up-Regulated in CR Compared to PD/Death: 3.5978 and 3.5041 and 3.2594
[2]
  Protein expression, mean, CR (N = 10): 639 pg/mL
  Protein expression, median, CR (N = 10): 627.6 pg/mL
  Protein expression, mean, PD/Death (N = 7): 283.7 pg/mL
  Protein expression, median, PD/Death (N = 7): 318.4 pg/mL

## CES1
Plasma proteins [1]
  Fold Change, Down-Regulated in CR Compared to PD/Death: −2.9707
Plasma proteins [3]
  Fold Change (D1 vs D28), proteins Down-Regulated in CR Compared to PD/Death: 1.1821

## CXCL10
Plasma proteins [1]
  Fold Change, Down-Regulated in CR Compared to PD/Death: −3.5343
Plasma proteins [3]
  Fold Change (D1 vs D28), proteins Down-Regulated in CR Compared to PD/Death: −1.6949
[2]
  Protein expression, mean, CR (N = 10): 307.2 pg/mL
  Protein expression, median, CR (N = 10): 200.6 pg/mL
  Protein expression, mean, PD/Death (N = 7): 920.4 pg/mL
  Protein expression, median, PD/Death (N = 7): 941.8 pg/mL

## LEP
Plasma proteins [1]
  Fold Change, Up-Regulated in CR Compared to PD/Death: 4.402
Plasma proteins [3]
  Fold Change (D1 vs D28), proteins Up-Regulated in CR Compared to PD/Death: 1.133

## IGFBP3
Plasma proteins [1]
  Fold Change, Up-Regulated in CR Compared to PD/Death: 1.9044
Plasma proteins [3]
  Fold Change (D1 vs D28), proteins Up-Regulated in CR Compared to PD/Death: 1.1493

## ACE2
Plasma proteins [1]
  Fold Change, Down-Regulated in CR Compared to PD/Death: −3.7433
Plasma proteins [3]
  Fold Change (D1 vs D28), proteins Down-Regulated in CR Compared to PD/Death: 1.301

## GAL
Plasma proteins [1]
  Fold Change, Up-Regulated in CR Compared to PD/Death: 3.0034

## SIGLEC10
Plasma proteins [1]
  Fold Change, Down-Regulated in CR Compared to PD/Death: −3.8434

## SIGLEC1
Plasma proteins [1]
  Fold Change, Down-Regulated in CR Compared to PD/Death: −2.0772

## AREG
Plasma proteins [1]
  Fold Change, Down-Regulated in CR Compared to PD/Death: −4.8443

## THBS2
Plasma proteins [1]
  Fold Change, Down-Regulated in CR Compared to PD/Death: −1.2257

## GH
Plasma proteins [1]
  Fold Change, Up-Regulated in CR Compared to PD/Death: 2.6866
Plasma proteins [3]
  Fold Change (D1 vs D28), proteins Up-Regulated in CR Compared to PD/Death: −1.0614

## CTSL1
Plasma proteins [1]
  Fold Change, Down-Regulated in CR Compared to PD/Death: −3.7378
Plasma proteins [3]
  Fold Change (D1 vs D28), proteins Down-Regulated in CR Compared to PD/Death: −1.0288

## VSIG4
Plasma proteins [1]
  Fold Change, Down-Regulated in CR Compared to PD/Death: −2.0226

## TRAIL-R2
Plasma proteins [1]
  Fold Change, Down-Regulated in CR Compared to PD/Death: −1.8307
Plasma proteins [3]
  Fold Change (D1 vs D28), proteins Down-Regulated in CR Compared to PD/Death: −1.0337

## PLXNB1
Plasma proteins [1]
  Fold Change, Down-Regulated in CR Compared to PD/Death: −2.3572
Plasma proteins [3]
  Fold Change (D1 vs D28), proteins Down-Regulated in CR Compared to PD/Death: 1.1347

## SPINK1 (DSLGREAKCYNELNGCTKIYDPVCGTDGNTYPNECVLCFENRKRQTSILIQKSGPC; UniProt P00995 24-79, looked up)
Plasma proteins [1]
  Fold Change, Down-Regulated in CR Compared to PD/Death: −4.2632
Plasma proteins [3]
  Fold Change (D1 vs D28), proteins Down-Regulated in CR Compared to PD/Death: −1.0709

## THPO
Plasma proteins [1]
  Fold Change, Up-Regulated in CR Compared to PD/Death: 2.7391

## FAM19A5
Plasma proteins [1]
  Fold Change, Up-Regulated in CR Compared to PD/Death: 1.813
Plasma proteins [3]
  Fold Change (D1 vs D28), proteins Up-Regulated in CR Compared to PD/Death: 1.0841

## IL-1ra
Plasma proteins [1]
  Fold Change, Down-Regulated in CR Compared to PD/Death: −1.6115
Plasma proteins [3]
  Fold Change (D1 vs D28), proteins Down-Regulated in CR Compared to PD/Death: −1.1696

## LY75
Plasma proteins [1]
  Fold Change, Up-Regulated in CR Compared to PD/Death: 1.3276

## NCAN
Plasma proteins [1]
  Fold Change, Up-Regulated in CR Compared to PD/Death: 1.5261
Plasma proteins [3]
  Fold Change (D1 vs D28), proteins Up-Regulated in CR Compared to PD/Death: 1.0838

## CCL28
Plasma proteins [1]
  Fold Change, Up-Regulated in CR Compared to PD/Death: 1.4765
Plasma proteins [3]
  Fold Change (D1 vs D28), proteins Up-Regulated in CR Compared to PD/Death: 1.0625

## NCAM1
Plasma proteins [1]
  Fold Change, Up-Regulated in CR Compared to PD/Death: 1.6306

## EPHA2
Plasma proteins [1]
  Fold Change, Down-Regulated in CR Compared to PD/Death: −1.7981
Plasma proteins [3]
  Fold Change (D1 vs D28), proteins Down-Regulated in CR Compared to PD/Death: 1.0139

## COL4A1
Plasma proteins [1]
  Fold Change, Down-Regulated in CR Compared to PD/Death: −1.663

## IL8
Plasma proteins [1]
  Fold Change, Down-Regulated in CR Compared to PD/Death: −5.0031
Plasma proteins [3]
  Fold Change (D1 vs D28), proteins Down-Regulated in CR Compared to PD/Death: 1.6324

## GCG
Plasma proteins [1]
  Fold Change, Up-Regulated in CR Compared to PD/Death: 3.904

## DSC2
Plasma proteins [1]
  Fold Change, Down-Regulated in CR Compared to PD/Death: −1.8695

## HAVCR2
Plasma proteins [1]
  Fold Change, Down-Regulated in CR Compared to PD/Death: −2.4468

## MBL2
Plasma proteins [1]
  Fold Change, Up-Regulated in CR Compared to PD/Death: 3.7419
Plasma proteins [3]
  Fold Change (D1 vs D28), proteins Up-Regulated in CR Compared to PD/Death: −1.439

## CDCP1
Plasma proteins [1]
  Fold Change, Down-Regulated in CR Compared to PD/Death: −2.792
Plasma proteins [3]
  Fold Change (D1 vs D28), proteins Down-Regulated in CR Compared to PD/Death: −1.1249

## TNFRSF10A
Plasma proteins [3]
  Fold Change (D1 vs D28), proteins Down-Regulated in CR Compared to PD/Death: 1.1052 and 1.0972

## Gal-4
Plasma proteins [1]
  Fold Change, Down-Regulated in CR Compared to PD/Death: −2.0631

## GDF-8
Plasma proteins [1]
  Fold Change, Up-Regulated in CR Compared to PD/Death: 2.2804
Plasma proteins [3]
  Fold Change (D1 vs D28), proteins Up-Regulated in CR Compared to PD/Death: 1.0733

## CCL19
Plasma proteins [1]
  Fold Change, Down-Regulated in CR Compared to PD/Death: −2.1313
Plasma proteins [3]
  Fold Change (D1 vs D28), proteins Down-Regulated in CR Compared to PD/Death: 1.0575
[2]
  Protein expression, mean, CR (N = 10): 484.9 pg/mL
  Protein expression, median, CR (N = 10): 439.1 pg/mL
  Protein expression, mean, PD/Death (N = 7): 1751 pg/mL
  Protein expression, median, PD/Death (N = 7): 1036 pg/mL

## CRH
Plasma proteins [1]
  Fold Change, Up-Regulated in CR Compared to PD/Death: 1.4003
Plasma proteins [3]
  Fold Change (D1 vs D28), proteins Up-Regulated in CR Compared to PD/Death: −1.0445

## CCL11
Plasma proteins [1]
  Fold Change, Up-Regulated in CR Compared to PD/Death: 1.3644 and 1.3163

## CALCA
Plasma proteins [1]
  Fold Change, Down-Regulated in CR Compared to PD/Death: −5.4107
Plasma proteins [3]
  Fold Change (D1 vs D28), proteins Down-Regulated in CR Compared to PD/Death: −1.2293
[2]
  Protein expression, mean, CR (N = 10): 1826 pg/mL
  Protein expression, median, CR (N = 10): 1456 pg/mL
  Protein expression, mean, PD/Death (N = 7): 5996 pg/mL
  Protein expression, median, PD/Death (N = 7): 3130 pg/mL

## MCP-3
Plasma proteins [1]
  Fold Change, Down-Regulated in CR Compared to PD/Death: −7.865
Plasma proteins [3]
  Fold Change (D1 vs D28), proteins Down-Regulated in CR Compared to PD/Death: 1.1945

## LILRB4
Plasma proteins [1]
  Fold Change, Down-Regulated in CR Compared to PD/Death: −1.832
Plasma proteins [3]
  Fold Change (D1 vs D28), proteins Down-Regulated in CR Compared to PD/Death: −1.1845

## Notch 3
Plasma proteins [1]
  Fold Change, Up-Regulated in CR Compared to PD/Death: 1.7306
Plasma proteins [3]
  Fold Change (D1 vs D28), proteins Up-Regulated in CR Compared to PD/Death: 1.1259

## CD207
Plasma proteins [1]
  Fold Change, Up-Regulated in CR Compared to PD/Death: 1.7751
Plasma proteins [3]
  Fold Change (D1 vs D28), proteins Up-Regulated in CR Compared to PD/Death: 1.0177

## KIT
Plasma proteins [1]
  Fold Change, Up-Regulated in CR Compared to PD/Death: 1.7369
Plasma proteins [3]
  Fold Change (D1 vs D28), proteins Up-Regulated in CR Compared to PD/Death: −1.0943

## CCL5
Plasma proteins [1]
  Fold Change, Up-Regulated in CR Compared to PD/Death: 2.1066
